From patent US20090081195A1, “Inhibitors of Ste20-like Kinase (SLK) and Methods of Modulating Cell Cycle Progression and Cell Motility” (OTTAWA HEALTH RESEARCH INSTITUTE, priority 2005, published 2009)
Results are given in words; binding and its absence hold for the method and conditions named. In cells and extracts the contact can be indirect. Binding can be weak; no strength is given.

Biological target: α-tubulin
Assay: GST pulldown

Row | Binder | binding
1 | Ldb2 (construct not stated) (protein, mouse, UniProt O55203 1-373, looked up) MSSTPHDPFYSSPFGPFYRRHTPYMVQPEYRIYEMNKRLQSRTEDSDNLWWDAFATEFFEDDATLTLSFCLEDGPKRYTIGRTLIPRYFSTVFEGGVTDLYYILKHSKESYHNSSITVDCDQCAMVTQHGKPMFTKVCTEGRLILEFTFDDLMRIKTWHFTIRQYRELVPRSILAMHAQDPQVLDQLSKNITRMGLTNFTLNYLRLCVILEPMQELMSRHKTYNLSPRDCLKTCLFQKWQRMVAPPAEPTRQPTTKRRKRKNSTSSTSNSSAGNTTNSAGSKKKTPAASLSLATQVPDVMVVGEPTLMGGEFGDEDERLITRLENTQYDAANGMDDEEDFNNSPALGNNSPWNSKPPATQETKSENAPPQASQ | binds
2 | Ldb1 (construct not stated) (protein, mouse, UniProt P70662-3 1-375, looked up) MLDRDVGPTPMYPPTYLEPGIGRHTPYGNQTDYRIFELNKRLQNWTEECDNLWWDAFTTEFFEDDAMLTITFCLEDGPKRYTIGRTLIPRYFRSIFEGGATELYYVLKHPKEAFHSNFVSLDCDQGSMVTQHGKPMFTQVCVEGRLYLEFMFDDMMRIKTWHFSIRQHRELIPRSILAMHAQDPQMLDQLSKNITRCGLSNSTLNYLRLCVILEPMQELMSRHKTYSLSPRDCLKTCLFQKWQRMVAPPAEPARQQPSKRRKRKMSGGSTMSSGGGNTNNSNSKKKSPASTFALSSQVPDVMVVGEPTLMGGEFGDEDERLITRLENTQFDAANGIDDEDSFNNSPALGANSPWNSKPPSSQESKSENPTSQASQ | no binding
